For one substance, binding results are on record in doi:10.1101/2023.11.10.566635.

Chains of the proteins cited; added tags and fusions are not shown. Lines headed by an entry give the natural chain unless they say otherwise; changes in a name come on top.
UniProt Q9WTX5: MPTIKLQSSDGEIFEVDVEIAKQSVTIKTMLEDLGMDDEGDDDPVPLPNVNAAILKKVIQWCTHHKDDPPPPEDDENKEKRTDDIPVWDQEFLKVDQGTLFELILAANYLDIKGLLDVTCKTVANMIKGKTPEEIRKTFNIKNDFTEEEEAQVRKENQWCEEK
UniProt Q9D417: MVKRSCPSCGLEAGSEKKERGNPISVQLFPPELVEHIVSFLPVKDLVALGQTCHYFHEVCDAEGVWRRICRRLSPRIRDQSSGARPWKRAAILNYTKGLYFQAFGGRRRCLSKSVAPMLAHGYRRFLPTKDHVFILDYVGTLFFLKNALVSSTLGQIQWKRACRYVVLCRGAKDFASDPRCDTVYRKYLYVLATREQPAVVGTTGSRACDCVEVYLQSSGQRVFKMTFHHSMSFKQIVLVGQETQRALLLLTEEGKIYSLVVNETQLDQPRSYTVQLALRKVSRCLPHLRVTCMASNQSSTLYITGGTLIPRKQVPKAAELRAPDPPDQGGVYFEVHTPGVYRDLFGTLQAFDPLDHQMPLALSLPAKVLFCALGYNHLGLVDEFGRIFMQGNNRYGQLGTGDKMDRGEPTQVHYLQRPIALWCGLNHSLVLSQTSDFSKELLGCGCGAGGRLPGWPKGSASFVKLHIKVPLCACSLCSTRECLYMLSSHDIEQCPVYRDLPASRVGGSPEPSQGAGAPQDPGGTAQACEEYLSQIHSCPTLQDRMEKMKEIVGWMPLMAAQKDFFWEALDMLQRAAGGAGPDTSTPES

In the experiment the target is SKP1-1D4 (mouse) (UniProt Q9WTX5). Briefly: co-IP; Fbxo24 (WT or ΔF)-FLAG co-expressed with Skp1-1D4 in HEK293T cells; IP with anti-1D4 or anti-FLAG antibody on Protein G magnetic beads, 1 h at 4°C; 1% Triton X-100 lysis buffer, 50 mM Tris-HCl pH 7.4, 150 mM NaCl; immunoblot. (In general: Immunoblotting shows a protein as a band on a membrane.)

No constants are given. Whether binding was seen depends on the method and setting. In cells and extracts the contact can be indirect.

As for “FBXO24 (ΔF) tagged with 3×FLAG, without the F-box domain (from UniProt Q9D417)”, the binding result is listed as “no binding”.
